Test results from the supplement of paper PMC10849652.
The list shows a part of the results.

Sequences of proteins named here, by UniProt entry; tags and fusion partners are left off. A change or cut given only in a name is not applied to a line headed by its entry.
UniProt Q13362, whole entry, looked up: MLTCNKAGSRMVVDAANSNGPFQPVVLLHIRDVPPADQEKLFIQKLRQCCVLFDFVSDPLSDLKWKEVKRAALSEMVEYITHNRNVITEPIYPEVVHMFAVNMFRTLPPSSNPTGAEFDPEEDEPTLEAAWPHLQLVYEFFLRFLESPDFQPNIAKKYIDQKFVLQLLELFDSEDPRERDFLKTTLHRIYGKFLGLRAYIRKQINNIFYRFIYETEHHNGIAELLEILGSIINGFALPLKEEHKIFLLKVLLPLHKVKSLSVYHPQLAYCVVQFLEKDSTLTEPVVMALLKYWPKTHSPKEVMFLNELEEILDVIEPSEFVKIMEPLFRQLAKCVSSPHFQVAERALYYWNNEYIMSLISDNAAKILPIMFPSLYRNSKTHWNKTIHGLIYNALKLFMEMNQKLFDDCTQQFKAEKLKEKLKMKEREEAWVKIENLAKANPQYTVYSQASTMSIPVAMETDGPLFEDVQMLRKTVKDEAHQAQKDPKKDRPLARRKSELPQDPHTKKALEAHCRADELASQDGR
UniProt Q2NL68: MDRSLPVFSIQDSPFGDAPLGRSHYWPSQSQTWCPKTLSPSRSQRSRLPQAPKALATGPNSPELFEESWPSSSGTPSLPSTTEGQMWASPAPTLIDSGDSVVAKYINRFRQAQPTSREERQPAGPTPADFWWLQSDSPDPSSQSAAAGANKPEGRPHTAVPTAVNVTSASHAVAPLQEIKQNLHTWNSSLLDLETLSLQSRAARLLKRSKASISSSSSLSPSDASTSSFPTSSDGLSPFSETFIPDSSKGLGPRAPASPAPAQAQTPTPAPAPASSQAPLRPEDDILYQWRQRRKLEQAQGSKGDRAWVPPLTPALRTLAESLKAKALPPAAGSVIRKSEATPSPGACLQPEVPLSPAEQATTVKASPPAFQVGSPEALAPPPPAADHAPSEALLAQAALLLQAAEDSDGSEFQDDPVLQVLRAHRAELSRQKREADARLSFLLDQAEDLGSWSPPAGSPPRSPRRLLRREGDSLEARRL
UniProt Q9Y255: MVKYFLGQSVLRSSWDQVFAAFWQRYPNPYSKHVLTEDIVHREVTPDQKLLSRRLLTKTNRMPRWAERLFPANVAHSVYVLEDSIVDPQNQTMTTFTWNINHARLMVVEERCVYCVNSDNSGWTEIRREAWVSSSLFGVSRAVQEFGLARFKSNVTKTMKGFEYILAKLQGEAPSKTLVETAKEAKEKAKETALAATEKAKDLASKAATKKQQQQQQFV
UniProt P13727: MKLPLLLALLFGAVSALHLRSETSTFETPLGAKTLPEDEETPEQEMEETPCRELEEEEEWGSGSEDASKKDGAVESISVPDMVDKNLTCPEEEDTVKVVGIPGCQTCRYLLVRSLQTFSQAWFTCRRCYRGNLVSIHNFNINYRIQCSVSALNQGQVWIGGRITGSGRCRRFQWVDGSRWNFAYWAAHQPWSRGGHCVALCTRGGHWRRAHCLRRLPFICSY
UniProt Q9BZL4: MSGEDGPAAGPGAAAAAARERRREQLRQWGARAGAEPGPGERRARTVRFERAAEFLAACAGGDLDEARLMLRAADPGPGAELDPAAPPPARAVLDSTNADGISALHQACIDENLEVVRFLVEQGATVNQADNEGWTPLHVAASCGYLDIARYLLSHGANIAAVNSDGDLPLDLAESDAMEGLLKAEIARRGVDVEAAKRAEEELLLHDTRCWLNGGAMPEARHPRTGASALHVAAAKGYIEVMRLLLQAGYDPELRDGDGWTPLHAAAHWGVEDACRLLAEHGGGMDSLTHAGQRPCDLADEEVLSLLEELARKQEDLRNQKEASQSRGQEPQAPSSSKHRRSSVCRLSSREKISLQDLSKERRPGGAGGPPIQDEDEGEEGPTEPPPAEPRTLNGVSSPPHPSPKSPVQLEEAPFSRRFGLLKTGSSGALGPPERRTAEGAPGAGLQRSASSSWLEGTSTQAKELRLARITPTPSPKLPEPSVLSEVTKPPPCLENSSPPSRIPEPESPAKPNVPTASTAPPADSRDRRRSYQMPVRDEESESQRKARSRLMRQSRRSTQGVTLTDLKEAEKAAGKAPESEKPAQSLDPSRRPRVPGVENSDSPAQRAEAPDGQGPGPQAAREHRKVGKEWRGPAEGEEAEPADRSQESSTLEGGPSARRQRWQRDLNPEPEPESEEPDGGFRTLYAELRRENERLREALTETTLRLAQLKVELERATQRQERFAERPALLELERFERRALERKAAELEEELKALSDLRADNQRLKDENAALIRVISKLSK
UniProt P02810: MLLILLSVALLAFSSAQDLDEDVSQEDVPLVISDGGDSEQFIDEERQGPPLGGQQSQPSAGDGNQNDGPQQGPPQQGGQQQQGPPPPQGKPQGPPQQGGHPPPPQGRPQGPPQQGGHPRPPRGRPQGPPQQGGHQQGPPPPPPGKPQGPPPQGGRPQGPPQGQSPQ
UniProt Q96I34: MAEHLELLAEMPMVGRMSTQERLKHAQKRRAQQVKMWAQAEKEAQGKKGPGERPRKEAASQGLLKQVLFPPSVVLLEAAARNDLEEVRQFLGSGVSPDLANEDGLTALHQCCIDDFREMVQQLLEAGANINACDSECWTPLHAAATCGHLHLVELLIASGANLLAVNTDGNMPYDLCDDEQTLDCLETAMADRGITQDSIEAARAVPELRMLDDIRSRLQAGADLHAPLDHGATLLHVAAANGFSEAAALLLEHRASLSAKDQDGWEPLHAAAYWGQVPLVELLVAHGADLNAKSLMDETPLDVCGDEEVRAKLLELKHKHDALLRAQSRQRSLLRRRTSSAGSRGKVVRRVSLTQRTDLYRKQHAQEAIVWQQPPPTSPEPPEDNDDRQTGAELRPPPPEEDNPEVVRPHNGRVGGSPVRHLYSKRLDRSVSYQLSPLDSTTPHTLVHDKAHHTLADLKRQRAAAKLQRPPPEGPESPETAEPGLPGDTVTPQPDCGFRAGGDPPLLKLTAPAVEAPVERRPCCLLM
UniProt P55345: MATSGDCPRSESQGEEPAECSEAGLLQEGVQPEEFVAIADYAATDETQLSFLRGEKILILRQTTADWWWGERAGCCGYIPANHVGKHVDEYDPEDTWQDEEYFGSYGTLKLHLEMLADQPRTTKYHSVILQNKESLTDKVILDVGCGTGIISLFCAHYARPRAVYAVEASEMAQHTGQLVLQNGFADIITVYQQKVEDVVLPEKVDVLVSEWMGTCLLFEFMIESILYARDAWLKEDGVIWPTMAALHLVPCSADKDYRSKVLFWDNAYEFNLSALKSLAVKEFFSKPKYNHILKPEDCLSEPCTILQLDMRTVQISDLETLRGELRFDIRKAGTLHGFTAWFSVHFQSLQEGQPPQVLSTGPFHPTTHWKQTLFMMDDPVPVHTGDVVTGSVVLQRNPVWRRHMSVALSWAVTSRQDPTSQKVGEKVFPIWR
UniProt Q86XN7: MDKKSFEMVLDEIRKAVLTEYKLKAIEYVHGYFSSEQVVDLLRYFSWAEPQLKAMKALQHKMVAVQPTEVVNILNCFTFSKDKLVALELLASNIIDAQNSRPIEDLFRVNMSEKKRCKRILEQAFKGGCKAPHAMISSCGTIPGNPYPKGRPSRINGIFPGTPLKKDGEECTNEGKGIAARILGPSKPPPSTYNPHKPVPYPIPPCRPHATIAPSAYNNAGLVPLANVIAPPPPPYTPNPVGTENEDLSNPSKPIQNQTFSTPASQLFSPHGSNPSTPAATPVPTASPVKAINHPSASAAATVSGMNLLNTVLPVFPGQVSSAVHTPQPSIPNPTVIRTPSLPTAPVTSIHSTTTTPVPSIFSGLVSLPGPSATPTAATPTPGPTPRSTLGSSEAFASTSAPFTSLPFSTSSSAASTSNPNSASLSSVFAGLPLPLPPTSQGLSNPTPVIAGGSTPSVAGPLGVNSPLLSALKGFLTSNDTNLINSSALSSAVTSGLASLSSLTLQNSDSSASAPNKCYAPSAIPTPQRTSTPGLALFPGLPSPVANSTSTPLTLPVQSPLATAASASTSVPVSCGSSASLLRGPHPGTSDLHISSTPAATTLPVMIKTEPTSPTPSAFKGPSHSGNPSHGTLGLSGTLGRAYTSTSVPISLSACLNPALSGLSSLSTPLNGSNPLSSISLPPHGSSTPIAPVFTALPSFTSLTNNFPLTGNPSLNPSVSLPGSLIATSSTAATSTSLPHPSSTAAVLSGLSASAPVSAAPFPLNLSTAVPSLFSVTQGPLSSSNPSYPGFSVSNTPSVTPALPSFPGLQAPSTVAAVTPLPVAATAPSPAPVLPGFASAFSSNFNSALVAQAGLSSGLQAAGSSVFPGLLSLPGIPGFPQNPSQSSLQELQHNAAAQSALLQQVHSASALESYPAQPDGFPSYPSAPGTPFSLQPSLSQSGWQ
UniProt Q9H7J1: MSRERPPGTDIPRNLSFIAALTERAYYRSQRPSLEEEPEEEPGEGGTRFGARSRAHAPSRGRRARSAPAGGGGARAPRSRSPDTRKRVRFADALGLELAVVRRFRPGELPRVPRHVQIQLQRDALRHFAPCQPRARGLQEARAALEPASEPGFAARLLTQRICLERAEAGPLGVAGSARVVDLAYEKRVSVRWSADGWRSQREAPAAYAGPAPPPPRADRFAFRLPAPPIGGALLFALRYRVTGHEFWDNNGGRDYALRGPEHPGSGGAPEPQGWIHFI
UniProt Q8NI37: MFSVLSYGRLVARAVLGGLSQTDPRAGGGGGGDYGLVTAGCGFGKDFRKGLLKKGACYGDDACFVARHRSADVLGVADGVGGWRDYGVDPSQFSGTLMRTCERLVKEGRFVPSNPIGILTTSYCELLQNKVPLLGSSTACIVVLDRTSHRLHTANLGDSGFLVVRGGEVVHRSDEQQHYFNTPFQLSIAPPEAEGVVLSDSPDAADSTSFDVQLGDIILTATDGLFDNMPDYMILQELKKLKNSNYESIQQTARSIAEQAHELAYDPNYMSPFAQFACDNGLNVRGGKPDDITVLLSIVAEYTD
UniProt P57071, whole entry, looked up: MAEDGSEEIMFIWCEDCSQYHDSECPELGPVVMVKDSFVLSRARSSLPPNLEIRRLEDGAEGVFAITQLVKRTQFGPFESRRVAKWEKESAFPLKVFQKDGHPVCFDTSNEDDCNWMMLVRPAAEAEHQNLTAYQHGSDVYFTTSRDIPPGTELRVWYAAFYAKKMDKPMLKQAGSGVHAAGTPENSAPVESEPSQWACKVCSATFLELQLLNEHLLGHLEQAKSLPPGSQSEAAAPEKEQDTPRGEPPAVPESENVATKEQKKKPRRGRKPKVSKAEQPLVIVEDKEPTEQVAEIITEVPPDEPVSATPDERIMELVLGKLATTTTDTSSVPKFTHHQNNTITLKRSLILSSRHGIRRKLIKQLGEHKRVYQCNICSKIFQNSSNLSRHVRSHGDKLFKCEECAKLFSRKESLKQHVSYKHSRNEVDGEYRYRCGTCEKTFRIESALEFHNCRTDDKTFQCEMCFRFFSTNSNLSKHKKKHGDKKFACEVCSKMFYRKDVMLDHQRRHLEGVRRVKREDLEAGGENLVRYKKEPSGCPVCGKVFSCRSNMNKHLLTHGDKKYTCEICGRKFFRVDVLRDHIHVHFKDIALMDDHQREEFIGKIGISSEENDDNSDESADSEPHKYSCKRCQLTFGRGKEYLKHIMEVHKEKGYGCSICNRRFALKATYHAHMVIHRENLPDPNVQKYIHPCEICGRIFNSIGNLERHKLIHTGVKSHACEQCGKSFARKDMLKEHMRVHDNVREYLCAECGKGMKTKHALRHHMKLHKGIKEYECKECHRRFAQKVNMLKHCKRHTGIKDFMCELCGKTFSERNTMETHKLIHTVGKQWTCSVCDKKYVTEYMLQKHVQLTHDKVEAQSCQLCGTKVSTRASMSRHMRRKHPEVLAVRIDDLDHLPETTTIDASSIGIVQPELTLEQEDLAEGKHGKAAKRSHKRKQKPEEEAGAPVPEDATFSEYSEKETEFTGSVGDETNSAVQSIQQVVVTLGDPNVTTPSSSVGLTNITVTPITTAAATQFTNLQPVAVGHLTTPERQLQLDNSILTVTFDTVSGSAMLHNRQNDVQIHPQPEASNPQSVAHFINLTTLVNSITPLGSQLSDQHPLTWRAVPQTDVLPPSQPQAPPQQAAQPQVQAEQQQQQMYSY
UniProt O75688: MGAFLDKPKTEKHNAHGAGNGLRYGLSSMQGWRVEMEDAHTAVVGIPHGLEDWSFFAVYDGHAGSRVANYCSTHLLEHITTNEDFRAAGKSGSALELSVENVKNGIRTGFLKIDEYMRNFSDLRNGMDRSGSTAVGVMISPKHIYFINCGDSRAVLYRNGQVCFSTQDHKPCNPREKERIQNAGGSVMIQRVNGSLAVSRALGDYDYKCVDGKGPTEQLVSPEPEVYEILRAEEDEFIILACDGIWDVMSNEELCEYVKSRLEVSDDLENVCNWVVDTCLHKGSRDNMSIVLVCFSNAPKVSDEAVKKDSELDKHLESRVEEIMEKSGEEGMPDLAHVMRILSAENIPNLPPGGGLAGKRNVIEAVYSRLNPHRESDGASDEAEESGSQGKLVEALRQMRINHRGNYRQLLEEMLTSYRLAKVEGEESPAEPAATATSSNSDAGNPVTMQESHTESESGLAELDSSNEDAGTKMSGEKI

compound: C[C@@H](Oc1cc(-c2cnn(C3CCNCC3)c2)cnc1N)c1c(Cl)ccc(F)c1Cl [crizotinib]; assay: log2 fold change, soluble protein after heating vs DMSO (PISA); higher = thermal stabilisation; K562 lysate, 10 uM; active = over 0.2 and 3.5 SD of the protein, either way, in both replicates (recomputed)
In short: (§1)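 K562 pellets were dounce-homogenised in PBS pH 7.4 containing 1 mM MgCl2, and the crude extract, at 1 mg/mL protein, was exposed to 10 μM compound for 30 min. Aliquots were heated for 3 min across 48°C-58°C, pooled, brought to 0.5% NP-40 at 4°C and spun at 21,000xg for 90 min, with the supernatant taken as soluble protein. TMTpro 16plex LC-MS/MS with equalised channel sums quantified that protein. Values are log-two fold changes in thermal stability relative to solvent controls, taken from duplicates.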

log2 fold change, inactive:
PRPF40B (UniProt Q6NWY9) -0.163
PPP2R5C isoform 2 (UniProt Q13362) 0.234
PROSER3 (UniProt Q2NL68) 0.131
PRELID1 (UniProt Q9Y255) 0.089
PRG2 (UniProt P13727) -0.144
PPP1R12C isoform 3 (UniProt Q9BZL4) 0
PRIMPOL (UniProt Q96LW4) -0.097
PPL (UniProt O60437) -0.636
PROSER3, A0A2R8Y8D9 -0.057

compound: C[C@H](C1=CC=C(C=C1)C(=O)NC2=C3C=CNC3=NC=C2)N; assay: as above
In short: as §1

log2 fold change, inactive:
PRH1 (UniProt P02810) 0.52
PPP2R5C isoform 2 (UniProt Q13362) -0.021
PPP6R3 isoform 2 (UniProt Q5H9R7) -0.041
PROSER3 (UniProt Q2NL68) -0.022
PPP1R16A (UniProt Q96I34) -0.13
PPP1R15B (UniProt Q5SWA1) -0.165
PPP2R3C (UniProt Q969Q6) -0.1
PRDM2 (UniProt Q13029) -0.081
PPP1R12C isoform 3 (UniProt Q9BZL4) 0.109
PREP (UniProt H0Y5Y0) -0.304
PRMT2 (UniProt P55345) 0.025
PPP6R3 isoform 6 (UniProt Q5H9R7) 0.046
PROSER1 (UniProt Q86XN7) 0.101
PPP1R3E (UniProt Q9H7J1) -0.081

compound: C[C@H](Nc1ncnc2nc[nH]c12)c1cc2cccc(Cl)c2c(=O)n1-c1ccccc1 [duvelisib]; assay: as above
In short: as §1

log2 fold change, inactive:
PPTC7 (UniProt Q8NI37) 0
PPP2R5C isoform 2 (UniProt Q13362) -0.064
PPME1 (UniProt Q9Y570) -0.017
PRDM15 (UniProt P57071) -0.308
PPM1B isoform 2 (UniProt O75688) 0.084
PRG2 (UniProt P13727) 0.08
PPP2R3C (UniProt Q969Q6) 0.028
PRDM2 (UniProt Q13029) -0.065
PRIMPOL (UniProt Q96LW4) 0.003
PPIP5K2 (UniProt H0Y9S9) 0.004
PPL (UniProt O60437) -1.27
PRMT2 (UniProt P55345) 0.144
PROSER3, A0A2R8Y8D9 0.004
PROSER1 (UniProt Q86XN7) 0.118
